In article PMC6999089:
These are yes or no findings as the source states them, for the method shown. Binding seen in cells or lysates may run through a third protein. Some binding calls cover weakened binding; strength is not graded here.

Amino acid sequences for entries named in this document (tags omitted). Residues count along the entry.
UniProt Q7JQ32, residues 20-1525: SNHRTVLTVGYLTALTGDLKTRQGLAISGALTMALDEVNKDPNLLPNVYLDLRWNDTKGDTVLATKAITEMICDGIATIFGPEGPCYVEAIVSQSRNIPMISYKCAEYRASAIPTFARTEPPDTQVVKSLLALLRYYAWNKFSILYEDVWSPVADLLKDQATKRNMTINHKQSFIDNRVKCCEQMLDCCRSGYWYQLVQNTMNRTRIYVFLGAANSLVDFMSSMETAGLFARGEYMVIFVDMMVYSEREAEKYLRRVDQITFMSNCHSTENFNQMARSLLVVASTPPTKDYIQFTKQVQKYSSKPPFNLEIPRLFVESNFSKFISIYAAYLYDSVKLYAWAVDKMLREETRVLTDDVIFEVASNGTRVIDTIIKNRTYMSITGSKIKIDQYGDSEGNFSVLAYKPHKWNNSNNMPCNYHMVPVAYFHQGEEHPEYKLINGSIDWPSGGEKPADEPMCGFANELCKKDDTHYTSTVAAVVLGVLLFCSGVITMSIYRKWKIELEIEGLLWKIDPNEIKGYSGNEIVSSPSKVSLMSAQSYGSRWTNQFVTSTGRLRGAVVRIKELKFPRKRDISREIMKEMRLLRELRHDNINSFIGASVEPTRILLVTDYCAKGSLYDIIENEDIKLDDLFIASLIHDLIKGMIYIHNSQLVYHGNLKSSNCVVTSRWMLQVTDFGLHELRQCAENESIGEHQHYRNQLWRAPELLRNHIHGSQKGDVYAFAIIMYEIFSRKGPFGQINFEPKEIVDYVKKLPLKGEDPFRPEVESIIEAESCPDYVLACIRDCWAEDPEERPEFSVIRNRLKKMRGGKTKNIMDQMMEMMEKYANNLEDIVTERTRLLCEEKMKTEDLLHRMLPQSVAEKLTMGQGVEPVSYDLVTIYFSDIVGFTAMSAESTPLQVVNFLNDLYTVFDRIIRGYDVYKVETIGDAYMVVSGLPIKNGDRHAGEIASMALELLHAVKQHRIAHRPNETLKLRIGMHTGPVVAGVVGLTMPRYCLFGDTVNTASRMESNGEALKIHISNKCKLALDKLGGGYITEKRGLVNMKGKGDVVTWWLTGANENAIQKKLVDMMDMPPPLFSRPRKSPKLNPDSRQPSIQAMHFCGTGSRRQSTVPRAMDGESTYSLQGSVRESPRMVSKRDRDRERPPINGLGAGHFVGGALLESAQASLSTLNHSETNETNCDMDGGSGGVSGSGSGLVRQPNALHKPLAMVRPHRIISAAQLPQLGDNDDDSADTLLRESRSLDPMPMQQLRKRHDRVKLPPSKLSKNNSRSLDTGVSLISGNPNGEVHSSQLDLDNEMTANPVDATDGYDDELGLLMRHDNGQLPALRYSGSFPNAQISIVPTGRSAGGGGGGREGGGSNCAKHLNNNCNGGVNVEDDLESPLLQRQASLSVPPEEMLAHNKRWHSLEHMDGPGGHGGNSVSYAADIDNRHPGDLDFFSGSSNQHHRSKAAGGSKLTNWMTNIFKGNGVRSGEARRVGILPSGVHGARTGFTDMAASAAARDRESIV
UniProt P08646: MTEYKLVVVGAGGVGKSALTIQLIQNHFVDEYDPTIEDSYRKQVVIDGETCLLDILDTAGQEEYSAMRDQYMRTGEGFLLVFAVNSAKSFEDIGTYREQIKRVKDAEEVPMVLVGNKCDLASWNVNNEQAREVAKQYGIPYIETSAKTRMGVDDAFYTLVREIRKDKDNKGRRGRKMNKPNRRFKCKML

Biological target: FLAG-tagged wild-type Gyc76C (Drosophila) (UniProt Q7JQ32)
Experiment: co-IP; S2 cells co-transfected with V5-Ras85D and FLAG-Gyc76C (WT or ΔKHD); lysis in 30 mM Tris pH 7.5, 150 mM NaCl, 1% CHAPS; IP with anti-FLAG M2 and Dynabeads M280 at 4°C; wash with 500 mM NaCl, 1% CHAPS; blot with anti-V5 and anti-FLAG

binding: binds
Substance: V5-tagged Ras85D (from UniProt P08646 1-189)
